PubChem BioAssay AID540276 (National Center for Advancing Translational Sciences (NCATS), 2011)
Hit rate of the full screen: of about 300,000 compounds, about 5,400 (1.8%) were called active. Inconclusive means that the source gave no clear call. Such entries were picked first, then a sample of the others. Calls follow the shape of the full dose curve; tested in HEK293 cells. Potencies of inconclusive entries are doubtful fits and often do not repeat.
% is scaled to controls: 0 for no effect and ±100 for the full control effect; potency is read from the fitted curve at half-maximal effect.

Experiment: qHTS for inhibitors of binding or entry into cells for Marburg Virus
Settings: Marburg virus pseudotyped entry inhibition, cell reporter; activity change, negative = inhibition: at 37.8 µM (top of the series) unless noted
For `COC(=O)Cc1ccc(NC(=O)c2ccc(C(C)(C)C)cc2)cc1`, the Potency was inconclusive: 18.3 µM [inhibitor, partial curve, poor fit].
With `COc1ccc(CCNC(=O)c2cc3c(=O)[nH]c4ccc(C)cc4c3s2)cc1OC` the Potency was “inactive”.
For `Cc1cnc(C(=O)Nc2ccc(N3CCOCC3)cc2)cn1`, the Potency was inconclusive: 20.6 µM [activator, single point].
In the case of `O=C(CSc1ccc2nnc(-c3ccccn3)n2n1)Nc1ccc(F)cc1F`, the Potency is reported as inconclusive: 7.08 µM [inhibitor, full curve, poor fit].
With `CCN(c1cccc(C(F)(F)F)c1)S(=O)(=O)c1ccc2c(c1)CCN2C(C)=O` the Potency was inconclusive: 35.5 µM [inhibitor, single point].
With `CCC(C)c1ccc(S(=O)(=O)N2CCN(C(C)C(=O)NC3CCCC3)CC2)cc1` (centres undefined) the Potency was “inactive”.
For `CC(C)=CC(=O)NCCc1ccccc1`, the Potency was inconclusive: 0.92 µM [activator, full curve, poor fit].
For `COC(=O)Nc1ccc(S(=O)(=O)Nc2cc(OC)nc(OC)n2)cc1`, the Potency was “inactive”.
In the case of `O=C(CSc1nc(-c2ccco2)cc(C(F)(F)F)n1)Nc1ccc2c(c1)CCC2`, the Potency is reported as inconclusive: 35.5 µM [inhibitor, single point].
With `C/C(=N\NC(=S)NC1CCCCC1)c1ccc(OC(F)F)cc1OC(F)F` the Potency was inconclusive: 35.5 µM [inhibitor, single point].
With `CC(=O)c1cccc(NC(=O)c2cc(-c3ccc4c(c3)OCCO4)on2)c1` the Potency was “inactive”.
With `CCOCCn1c(CN2CCN(c3ccc(F)cc3)CC2)nc2c1c(=O)n(C)c(=O)n2C` the Potency was inconclusive: 29.1 µM [inhibitor, single point].
In the case of `Cc1cc2ncn(C(=O)N3CCCCC3)c2cc1C`, the Potency is reported as “inactive”.
For `COC(=O)c1cc(NC(=O)c2ccc(F)cc2)cc(C(=O)OC)c1`, the Potency was “inactive”.
For `CCOC(=S)SCC(=O)Nc1nc(-c2ccc(Br)cc2)cs1`, the Potency was inconclusive: 10 µM [inhibitor, partial curve, poor fit].
With `COc1cccc(Nc2ccc(-n3ccnc3)nn2)c1` the Potency was “inactive”.
With `Clc1ccc2c(c1)N=C(N1CCNCC1)c1ccccc1N2` the Potency was inconclusive: 16.4 µM [inhibitor, partial curve, poor fit].
For `C=CCC(CC=C)(C(=O)O)c1ccccc1`, the Potency was inconclusive: 31.6 µM [activator, single point].
In the case of `CCOC(=O)N/N=C/c1ccccc1F`, the Potency is reported as inconclusive: 1.41 µM [activator, full curve, poor fit].
In the case of `CC1(C)COC(Cn2c3ccccc3c3ccccc32)O1` (centres undefined), the Potency is reported as inconclusive: 14.1 µM [inhibitor, partial curve, poor fit].
In the case of `CCCCSc1nnc2nc(C)cc(C)n12`, the Potency is reported as inconclusive: 4.61 µM [inhibitor, partial curve, poor fit].
For `COc1ccc(/C=N/n2c(C)nc3sc(C)c(C)c3c2=O)cc1OC`, the Potency was inconclusive: 3.98 µM [inhibitor, partial curve, poor fit].
For `CCOc1nc(N(C)C)nc(-n2nnc(C(C)=O)c2C)n1`, the Potency was inconclusive: 12.6 µM [activator, partial curve, poor fit].
In the case of `O=C(N/N=C/C=C\c1ccco1)c1cccs1`, the Potency is reported as inconclusive: 3.16 µM [activator, full curve].
In the case of `O=C(COC(=O)c1cc(=O)[nH]c2ccccc12)Nc1nc(-c2cccc(Br)c2)cs1`, the Potency is reported as inconclusive: 2.06 µM [activator, full curve, poor fit].
In the case of `O=C(NC(CC(=O)N1CCN(c2ccccc2O)CC1)c1ccccc1)c1ccccc1Cl` (centres undefined), the Potency is reported as inconclusive: 0.316 µM [inhibitor, single point].
With `COc1ccc2c(c1)c(C(C)=O)c(C)n2C` the Potency was inconclusive: 6.31 µM [inhibitor, partial curve, poor fit].
With `CCN(CC)S(=O)(=O)c1ccc(C2=NOC3(C2)N(C)c2ccccc2C3(C)C)cc1` (centres undefined) the Potency was active: 1.84 µM.
With `COCCn1c(C)cc(C2=NNC(=Nc3ccc(F)cc3)SC2)c1C` the Potency was “inactive”.
With `Cc1nc2sc3c(c2c2nnc(SCC(=O)NCc4ccco4)n12)CCCC3` the Potency was inconclusive: 35.5 µM [inhibitor, single point].
For `CCN(CC)C(=O)C1=C(C)Nc2nc3ccccc3n2C1c1ccc(Cl)cc1` (centres undefined), the Potency was “inactive”.
In the case of `CC(CCc1ccccc1)NC(=O)c1cccs1` (centres undefined), the Potency is reported as “inactive”.
For `CCOC(=O)c1c(NC(C)=O)sc2c(OCC(O)CN(CC)CC)c(Br)ccc12` (centres undefined), the Potency was active: 11.2 µM.
For `COc1cccc(C2=NCCc3cc4c(cc32)OCO4)c1OC`, the Potency was inconclusive: 35.5 µM [activator, single point].
For `CNC(=O)COC(=O)c1ccc(-c2nc3ccccc3s2)s1`, the Potency was inconclusive: 1.26 µM [inhibitor, full curve, poor fit].
In the case of `COc1ccccc1CNC(=O)C(Cc1ccccc1)NS(=O)(=O)c1ccc2c(c1)CCN2C(C)=O` (centres undefined), the Potency is reported as inconclusive: 11.2 µM [inhibitor, partial curve, poor fit].
In the case of `COc1ccc(CC(=O)Nc2cccc(-c3ccc4nnc(C)n4n3)c2)cc1OC`, the Potency is reported as inconclusive: 17.8 µM [inhibitor, single point].
For `Cc1ccc(C)c2sc(N3CCN(C(=O)c4ccc([N+](=O)[O-])o4)CC3)nc12`, the Potency was active: 12.6 µM.
For `COCCNC(=S)N1CCC(C(=O)c2ccc3c(c2)OCCO3)CC1`, the Potency was inconclusive: 3.55 µM [activator, single point].
For `CCCC[C@@H]1CN2[C@@H](CC[C@H](C)[C@@H]2c2ccc(Br)cc2)C(=O)O1`, the Potency was inconclusive: 0.0335 µM [activator, full curve, poor fit].
With `Cc1cc(O)c(CN2CCN(c3ccc(F)cc3)CC2)c2oc(=O)cc(C)c12` the Potency was “inactive”.
In the case of `CCc1ccc2c(c1)C1(C(=O)N2)N2CCCC2C(C(=O)c2ccc3ccccc3c2)C12C(=O)Nc1ccccc12` (centres undefined), the Potency is reported as inconclusive: 14.1 µM [inhibitor, single point].
With `COCCCn1c(=N)c(C(=O)NC2CCCC2)cc2c(=O)n3cc(C)ccc3nc21` the activity change, negative = inhibition was inconclusive: 7.66% [activator] [at 46.1 µM].
With `COc1cccc(C2=CC(c3ccccc3)n3nnnc3N2)c1` (centres undefined) the Potency was inconclusive: 3.66 µM [inhibitor, full curve].
With `Cc1ccc(Nc2nnc(SCC(=O)c3cc4ccccc4o3)s2)cc1C` the Potency was inconclusive: 32.6 µM [activator, single point].
For `COCC1CCN(C(=O)c2cc(COc3ccc4c(c3)CCCC4)on2)C1` (centres undefined), the Potency was “inactive”.
With `Cc1ccc(S(=O)(=O)N2CCCCC2)cc1NS(=O)(=O)c1ccccc1F` the Potency was inconclusive: 1.58 µM [inhibitor, full curve].
For `CCOC(=O)c1ccc(CSc2ncn[nH]2)o1`, the Potency was “inactive”.
In the case of `COc1ccc(-c2cc3ccccc3oc2=O)cc1NC(=O)c1cccnc1`, the Potency is reported as inconclusive: 1.64 µM [inhibitor, partial curve, poor fit].
In the case of `CC1CCC2(CC1)NC(=O)N(CC(=O)N1CCOCC1)C2=O` (centres undefined), the Potency is reported as “inactive”.
In the case of `N=c1oc2cc(O)ccc2cc1C(=O)Nc1ccc(Br)cc1`, the Potency is reported as inconclusive: 11.2 µM [inhibitor, single point].
In the case of `CCCN(C(=O)Cn1nc(Cc2ccncc2)c2ccccc2c1=O)c1ccccc1C`, the Potency is reported as inconclusive: 3.16 µM [activator, single point].
In the case of `CCOC(=O)c1cncc(C(=O)O)c1`, the Potency is reported as inconclusive: 1 µM [activator, full curve, poor fit].
For `CCn1nc(C)c(CN2CCC(n3nccc3NC(=O)c3ccccc3OC)CC2)c1C`, the Potency was inconclusive: 6.31 µM [inhibitor, single point].
In the case of `CC(=O)Nc1cccc(Oc2cnc3ccccc3n2)c1`, the Potency is reported as “inactive”.
For `CCOC(=O)C1CCN(C(c2cccnc2)c2c(NC(=O)c3ccco3)sc(C)c2C)CC1` (centres undefined), the Potency was inconclusive: 7.08 µM [inhibitor, full curve, poor fit].
For `COc1ccc(OCC(=O)N2CCN(c3nnc(-c4ccc(C)cc4)c4ccccc34)CC2)cc1`, the Potency was inconclusive: 11.2 µM [inhibitor, partial curve, poor fit].
With `COc1cccc(C(C)NC(=O)Nc2cc(Cl)ccc2OC)c1` (centres undefined) the Potency was inconclusive: 7.08 µM [inhibitor, full curve, poor fit].
In the case of `O=[N+]([O-])c1ccc(N/N=C2/CCCCC2c2ccccn2)cc1` (centres undefined), the Potency is reported as active: 1.12 µM.
For `COC(=O)CSc1nc(N)c(C#N)c(C(C)C)c1C#N`, the Potency was inconclusive: 0.164 µM [inhibitor, full curve].
For `COc1ccc(S(=O)(=O)N2N=C(c3ccc(NS(C)(=O)=O)cc3)CC2c2ccco2)cc1` (centres undefined), the Potency was “inactive”.
In the case of `O=C(CCc1ccccc1)Nc1ccccc1[N+](=O)[O-]`, the Potency is reported as “inactive”.
With `COc1ccc(Nc2cc(C(=O)NCCCN(C)C3CCCCC3)c3ccccc3n2)cc1` the Potency was active: 10 µM.
With `CCCNC(=O)OC[C@H]1O[C@H](CCO/N=C2\c3cc(OC)ccc3O[C@H](c3cccc(OC)c3)[C@H]2O)C=C[C@@H]1Oc1ccc(OC)cc1` the Potency was inconclusive: 0.0094 µM [inhibitor, full curve, poor fit].
With `CC(C)NC(=O)CCS(=O)(=O)c1cccc2nonc12` the Potency was “inactive”.
With `O=C(Nc1cccc(O)c1)c1cccc(NC(=O)c2cccs2)c1` the Potency was inconclusive: 6.31 µM [activator, single point].
For `COc1cc(NC(=O)CN(c2ccc(C)cc2)S(=O)(=O)c2c(C)noc2C)cc(OC)c1`, the Potency was inconclusive: 15.8 µM [inhibitor, single point].
For `O=C(O)COc1ccccc1/C=N/NC(=O)c1cc(-c2ccccc2)nc2ccccc12`, the Potency was “inactive”.
With `C=CCn1c(O)c(C(CC)=Nc2cccc(C(F)(F)F)c2)c(=O)[nH]c1=O` the Potency was inconclusive: 31.6 µM [activator, single point].
